Data from PubChem BioAssay (NCATS).
The inconclusive results got no clear call from the source; some entries with a clear call stand among them for comparison. Potencies beside an inconclusive call are fits to weak or partial responses and may not hold up. The source made the active and inactive calls. Calls come from the whole dose curve; as a rule, active = well fitted cell-killing curve with a large enough effect; inconclusive = small, poorly fitted or top-dose-only effect, or effect the other way; inactive = no such curve, though single readings can be large or run the other way.

test: Quantitative High-Throughput drug screen in 47 multiple myeloma cell lines against the NCATS MIPE library collection: Karpas417_ECACC cell viability assay (AID 1918961); details: Karpas417 myeloma viability, CellTiter-Glo ATP luminescence, 48 h; viability (% of DMSO): at 45.8 µM (top of the series);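 for viability (% of DMSO): 100% = DMSO only wells and 0% = media only wells without cells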
Outline: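 Inhibition of cell viability is measured here. Each line was plated at 500 cells per well, treated with MIPE 4.0 drugs, kept 48 hours at 37C, then assayed for ATP content by CellTiter-Glo luminescence.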
Potency is the fitted concentration of half-maximal effect.

Row | SMILES | Potency | viability (% of DMSO)
1 | CCOC(=O)C(C)Oc1cccc2c(=O)n(CC(=O)Nc3ccc4c(c3)OCCO4)ccc12 (configuration not stated) | inconclusive: 0.0037 µM [cytotoxic, full curve, poor fit] | –
2 | COc1c2occc2cc2ccc(=O)oc12 | inconclusive: 0.148 µM [cytotoxic, partial curve, poor fit] | –
3 | NS(=O)(=O)c1cc2c(cc1Cl)NC(C(Cl)Cl)NS2(=O)=O (configuration not stated) | inconclusive: 0.0047 µM [cytotoxic, full curve, poor fit] | –
4 | Clc1cccc(Cl)c1NC1=NCCN1 | inconclusive: 0.0047 µM [cytotoxic, full curve, poor fit] | –
5 | Cc1[nH]c(C=C2C(=O)Nc3ccc(S(=O)(=O)N(C)c4cccc(Cl)c4)cc32)c(C)c1C(=O)N1CCN(C)CC1 | active: 3.72 µM | –
6 | COc1cccc(Nc2c(C(N)=O)cnc3c(C)cc(S(=O)(=O)c4cccc(C(=O)N(C)C)c4)cc23)c1 | inconclusive: 4.57 µM [cytotoxic, partial curve, poor fit] | –
7 | Cn1c(NCCN(CCO)CCCc2ccc([N+](=O)[O-])cc2)cc(=O)n(C)c1=O | inconclusive: 18.7 µM [cytotoxic, partial curve, poor fit] | –
8 | N=C(N)c1ccc2cc(OC(=O)c3ccc(N=C(N)N)cc3)ccc2c1 | inconclusive: 4.69 µM [rising, partial curve] | –
9 | COc1ccc2ccc(=O)oc2c1CC=C(C)C | inconclusive: 13.2 µM [cytotoxic, partial curve, poor fit] | –
10 | COc1cc2ncn(-c3cc(OCc4ccccc4S(C)(=O)=O)c(C#N)s3)c2cc1OC | inconclusive: 33.2 µM [rising, partial curve, poor fit] | –
11 | C[C@@H](O)[C@H]1C(=O)N2C(C(=O)OCOC(=O)C(C)(C)C)=C(SC3CN(C4=NCCS4)C3)[C@H](C)[C@H]12 | inconclusive: 1.32 µM [cytotoxic, partial curve, poor fit] | –
12 | CCC(=O)NCC[C@@H]1CCc2ccc3c(c21)CCO3 | inconclusive: 33.2 µM [rising, single point] | –
13 | CC(=O)Nc1cccc(-n2c(=O)n(C3CC3)c(=O)c3c(Nc4ccc(I)cc4F)n(C)c(=O)c(C)c32)c1 | active: 0.0662 µM | –
14 | C[C@@H](NCc1cc2ccccc2[nH]1)c1cccc2ccccc12 | – | inactive: 48.8%
15 | CCC[C@H]1C[C@H](C(=O)N[C@@H]([C@@H]2O[C@@H](SC)[C@@H](O)[C@@H](O)[C@@H]2O)[C@H](C)Cl)N(C)C1 | active: 0.0093 µM | –
16 | CC(=O)SC[C@@H](C)C(=O)N1CCC[C@H]1C(=O)N[C@@H](Cc1ccccc1)C(=O)O | – | inactive: 157%
17 | CC(=O)N1CCN(c2ccc(OC[C@H]3CO[C@](Cn4ccnc4)(c4ccc(Cl)cc4Cl)O3)cc2)CC1 | inconclusive: 0.332 µM [cytotoxic, full curve, poor fit] | –
18 | Cc1cc2nc3c(=O)[nH]c(=O)nc-3n(CC(O)C(O)C(O)CO)c2cc1C (configuration not stated) | inconclusive: 0.0662 µM [cytotoxic, full curve, poor fit] | –
19 | CC(c1cc2ccccc2s1)N(O)C(N)=O (configuration not stated) | inconclusive: 13.2 µM [rising, partial curve, poor fit] | –
20 | COc1cc(-c2nn(C3CCC(N4CCN(C(C)=O)CC4)CC3)c3ncnc(N)c23)ccc1NC(=O)c1cc2ccccc2n1C (configuration not stated) | – | inactive: 126%
21 | Clc1ccc(COC(Cn2ccnc2)c2ccc(Cl)cc2Cl)c(Cl)c1 (configuration not stated) | inconclusive: 18.7 µM [cytotoxic, partial curve, poor fit] | –
22 | Cc1cn([C@H]2C[C@H](N=[N+]=[N-])[C@@H](CO)O2)c(=O)[nH]c1=O | – | active: 84.8%
23 | CC(Oc1ccc(O)cc1)(P(=O)(O)O)P(=O)(O)O | inconclusive: 0.105 µM [cytotoxic, full curve, poor fit] | –
24 | CO[C@H]1/C=C\O[C@@]2(C)Oc3c(C)c(O)c4c(O)c(c(C=NN5CCN(C6CCCC6)CC5)c(O)c4c3C2=O)NC(=O)C(C)=CC=C[C@H](C)[C@H](O)[C@@H](C)[C@@H](O)[C@@H](C)[C@H](OC(C)=O)[C@H]1C | – | inconclusive: 6.54% [cytotoxic]
25 | CCCCN(CCCC)CC(O)c1cc(Cl)cc2c1-c1ccc(Cl)cc1C2=Cc1ccc(Cl)cc1 (configuration not stated) | inconclusive: 0.0105 µM [cytotoxic, full curve, poor fit] | –
26 | CCCCC(=O)O[C@]1(C(=O)CO)[C@@H](C)C[C@H]2[C@@H]3CCC4=CC(=O)C=C[C@]4(C)[C@@]3(F)[C@@H](O)C[C@@]21C | inconclusive: 33.2 µM [cytotoxic, partial curve, poor fit] | –
27 | O=C(C[C@@H]1CC=CCCC(=O)O[C@H](c2ccccc2)CNC1=O)NCc1ccc(Cl)cc1 | – | active: 118%

Part of the list above, set out differently:

| Row | SMILES | Potency | viability (% of DMSO) |
| --- | --- | --- | --- |
| 2 | COc1c2occc2cc2ccc(=O)oc12 | inconclusive: 0.148 µM [cytotoxic, partial curve, poor fit] | – |
| 25 | CCCCN(CCCC)CC(O)c1cc(Cl)cc2c1-c1ccc(Cl)cc1C2=Cc1ccc(Cl)cc1 (configuration not stated) | inconclusive: 0.0105 µM [cytotoxic, full curve, poor fit] | – |
